Results are given in words; binding and its absence hold for the method and conditions named. Some results given as binding are weak or reduced against the parent protein; the word gives no strength.
T1: native human ESRRG protein (Estrogen-receptor related receptor gamma) (human) (UniProt P62508)
T1 sequence (looked up): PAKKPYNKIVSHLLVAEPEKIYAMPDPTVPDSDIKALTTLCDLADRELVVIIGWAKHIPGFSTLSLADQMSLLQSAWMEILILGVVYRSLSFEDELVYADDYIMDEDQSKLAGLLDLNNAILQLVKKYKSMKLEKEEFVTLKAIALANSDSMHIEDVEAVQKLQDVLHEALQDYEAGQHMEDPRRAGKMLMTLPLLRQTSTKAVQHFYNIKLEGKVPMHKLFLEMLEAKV


molecular target: T1, native human ESRRG protein (Estrogen-receptor related receptor gamma) (human); assay: TR-FRET ESRRG-ligand displacement assay, PGC1α as displaced co-activator

binding, binds:
FYNMYLLN (N-terminal acetyl group)
HDNMYLNE (N-terminal acetyl group)
NSLLKHLL (N-terminal acetyl group)
